Results on 3 molecules are retold here after paper PMC5940416.

Amino acid sequences for entries named in this document (tags omitted).
UniProt O95373: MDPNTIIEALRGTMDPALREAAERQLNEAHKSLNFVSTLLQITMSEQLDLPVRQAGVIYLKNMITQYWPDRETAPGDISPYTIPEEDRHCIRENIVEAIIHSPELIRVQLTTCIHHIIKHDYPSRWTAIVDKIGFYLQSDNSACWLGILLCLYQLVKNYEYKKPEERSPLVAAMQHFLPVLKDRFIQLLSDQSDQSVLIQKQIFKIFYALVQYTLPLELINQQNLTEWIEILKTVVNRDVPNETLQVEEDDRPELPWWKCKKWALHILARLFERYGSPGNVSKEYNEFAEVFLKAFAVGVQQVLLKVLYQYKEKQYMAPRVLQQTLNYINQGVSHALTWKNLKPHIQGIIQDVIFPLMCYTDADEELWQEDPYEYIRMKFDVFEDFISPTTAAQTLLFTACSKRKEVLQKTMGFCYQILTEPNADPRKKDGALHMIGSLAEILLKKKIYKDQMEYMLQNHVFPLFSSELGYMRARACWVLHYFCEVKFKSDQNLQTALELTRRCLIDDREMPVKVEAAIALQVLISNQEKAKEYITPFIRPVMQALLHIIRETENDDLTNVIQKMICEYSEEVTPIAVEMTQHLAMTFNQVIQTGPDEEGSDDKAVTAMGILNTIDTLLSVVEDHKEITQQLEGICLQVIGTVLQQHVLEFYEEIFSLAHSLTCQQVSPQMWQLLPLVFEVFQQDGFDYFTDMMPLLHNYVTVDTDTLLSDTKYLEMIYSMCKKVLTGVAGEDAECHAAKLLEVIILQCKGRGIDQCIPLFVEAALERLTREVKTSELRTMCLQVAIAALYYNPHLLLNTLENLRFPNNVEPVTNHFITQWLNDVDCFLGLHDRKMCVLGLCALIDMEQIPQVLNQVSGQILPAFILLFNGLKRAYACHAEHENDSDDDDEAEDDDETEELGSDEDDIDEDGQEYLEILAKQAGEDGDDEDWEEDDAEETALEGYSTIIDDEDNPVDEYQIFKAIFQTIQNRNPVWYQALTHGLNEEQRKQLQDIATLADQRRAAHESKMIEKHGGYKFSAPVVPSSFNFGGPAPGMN

These are yes or no findings as the source states them, for the method shown. In cells and extracts the contact can be indirect. Some results given as binding are weak or reduced against the parent protein; the word gives no strength. For part of these data: Sequences can lack the tags named with a protein.

Test [1] deals with importin-7/RanBP7 (IPO7) (human (endogenous in PLC/PRF/5 and Huh7)) (UniProt O95373). Description: co-IP; FLAG-tagged MTBP constructs overexpressed in Huh7 (MTBP^NLS also in PLC/PRF/5) against endogenous IPO7; ~200 ug lysate; FLAG- and IPO7-specific antibodies (anti-FLAG M2 affinity gel for MTBP^NLS); western blotting; isotype controls. On the technique in general: In western blotting, separated proteins are transferred to a membrane and probed.

Test [2] shares this target. Description: co-IP; endogenous proteins; ~200 ug whole cell lysate (IP lysis buffer, protease inhibitors) of PLC/PRF/5 and Huh7 cells, for p-Erk and IPO7 from cells infected with empty or MTBP lentiviral vector; protein-specific antibodies overnight at 4 C, protein A/G plus-agarose; western blotting; isotype controls.

B1: ΔC-MTBP, C-terminal region deleted mutant of MTBP, FLAG-tagged (domain or fragment, UniProt Q96DY7 1-759)
chain: MDRYLLLVIWGEGKFPSAASREAEHGPEVSSGEGTENQPDFTAANVYHLLKRSISASINPEDSTFPACSVGGIPGSKKWFFAVQAIYGFYQFCSSDWQEIHFDTEKDKIEDVLQTNIEECLGAVECFEEEDSNSRESLSLADLYEEAAENLHQLSDKLPAPGRAMVDIILLLSDKDPPKLKDYLPTVGALKHLREWYSAKITIAGNHCEINCQKIAEYLSANVVSLEDLRNVIDSKELWRGKIQIWERKFGFEISFPEFCLKGVTLKNFSTSNLNTDFLAKKIIPSKDKNILPKVFHYYGPALEFVQMIKLSDLPSCYMSDIEFELGLTNSTKQNSVLLLEQISSLCSKVGALFVLPCTISNILIPPPNQLSSRKWKEYIAKKPKTISVPDVEVKGECSSYYLLLQGNGNRRCKATLIHSANQINGSFALNLIHGKMKTKTEEAKLSFPFDLLSLPHFSGEQIVQREKQLANVQVLALEECLKRRKLAKQPETVSVAELKSLLVLTRKHFLDYFDAVIPKMILRKMDKIKTFNILNDFSPVEPNSSSLMETNPLEWPERHVLQNLETFEKTKQKMRTGSLPHSSEQLLGHKEGPRDSITLLDAKELLKYFTSDGLPIGDLQPLPIQKGEKTFVLTPELSPGKLQVLPFEKASVCHYHGIEYCLDDRKALERDGGFSELQSRLIRYETQTTCTRESFPVPTVLSPLPSPVVSSDPGSVPDGEVLQNELRTEVSRLKRRSKDLNCLYPRKRLVKSESSESL
As to B1, in test [1], the binding result was “no binding”.

B2: MTBP overexpressed from a lentiviral vector encoding MTBP cDNA (protein, UniProt Q96DY7 1-904)
chain: MDRYLLLVIWGEGKFPSAASREAEHGPEVSSGEGTENQPDFTAANVYHLLKRSISASINPEDSTFPACSVGGIPGSKKWFFAVQAIYGFYQFCSSDWQEIHFDTEKDKIEDVLQTNIEECLGAVECFEEEDSNSRESLSLADLYEEAAENLHQLSDKLPAPGRAMVDIILLLSDKDPPKLKDYLPTVGALKHLREWYSAKITIAGNHCEINCQKIAEYLSANVVSLEDLRNVIDSKELWRGKIQIWERKFGFEISFPEFCLKGVTLKNFSTSNLNTDFLAKKIIPSKDKNILPKVFHYYGPALEFVQMIKLSDLPSCYMSDIEFELGLTNSTKQNSVLLLEQISSLCSKVGALFVLPCTISNILIPPPNQLSSRKWKEYIAKKPKTISVPDVEVKGECSSYYLLLQGNGNRRCKATLIHSANQINGSFALNLIHGKMKTKTEEAKLSFPFDLLSLPHFSGEQIVQREKQLANVQVLALEECLKRRKLAKQPETVSVAELKSLLVLTRKHFLDYFDAVIPKMILRKMDKIKTFNILNDFSPVEPNSSSLMETNPLEWPERHVLQNLETFEKTKQKMRTGSLPHSSEQLLGHKEGPRDSITLLDAKELLKYFTSDGLPIGDLQPLPIQKGEKTFVLTPELSPGKLQVLPFEKASVCHYHGIEYCLDDRKALERDGGFSELQSRLIRYETQTTCTRESFPVPTVLSPLPSPVVSSDPGSVPDGEVLQNELRTEVSRLKRRSKDLNCLYPRKRLVKSESSESLLSQTTGNSNHYHHHVTSRKPQTERSLPVTCPLVPIPSCETPKLATKTSSGQKSMHESKTSRQIKESRSQKHTRILKEVVTETLKKHSITETHECFTACSQRLFEISKFYLKDLKTSRGLFEEMKKTANNNAVQVIDWVLEKTSKK
In the case of B2, in test [2], the binding entry is listed as “binds”.

B3: FLAG-tagged full-length MTBP (protein, UniProt Q96DY7 1-904)
chain: B2 chain
For the molecule B3, the binding result in test [1] is listed as “binds”.
